# Experiments:
# [1] = PAMPA-BBB reported values; ref [35],[36]; cited from earlier work
# [2] = PAMPA-BBB in vitro blood-brain barrier permeation assay
structure (smiles),measurement,setting,value
COc1cc2c(cc1OC)C(=O)C(CC1CCN(Cc3ccccc3)CC1)C2 (stereo not drawn) [Donepezil],Pe(ref.),[1],10 ± 1 ×10^−6 cm/s
same,"Papp at 10 h, 25 μg/mL","[2]; PAMPA, pH 7.4",10.1 ± 0.66 ×10⁻⁶ cm/s
same,CNS (±),[2]; PAMPA-BBB classification from Pe,"CNS + (CNS +: (high BBB permeability), Pe (×10^−6 cm/s) > 3.95)"

# — PMC10878344 (Journal of Enzyme Inhibition and Medicinal Chemistry, 2024)
